No constants are given. Whether binding was seen depends on the method and setting. Some entries that bind do so weakly or less than the wild type.
Target: human chemokine (C-C motif) receptor 8 (CCR8) (human) (UniProt P51685)
Experiment: flow cytometry, PE-conjugated antibody on human peripheral blood lymphocytes

Sequences of proteins named here, by UniProt entry; tags and fusion partners are left off. A change or cut given only in a name is not applied to a line headed by its entry.
UniProt P51685: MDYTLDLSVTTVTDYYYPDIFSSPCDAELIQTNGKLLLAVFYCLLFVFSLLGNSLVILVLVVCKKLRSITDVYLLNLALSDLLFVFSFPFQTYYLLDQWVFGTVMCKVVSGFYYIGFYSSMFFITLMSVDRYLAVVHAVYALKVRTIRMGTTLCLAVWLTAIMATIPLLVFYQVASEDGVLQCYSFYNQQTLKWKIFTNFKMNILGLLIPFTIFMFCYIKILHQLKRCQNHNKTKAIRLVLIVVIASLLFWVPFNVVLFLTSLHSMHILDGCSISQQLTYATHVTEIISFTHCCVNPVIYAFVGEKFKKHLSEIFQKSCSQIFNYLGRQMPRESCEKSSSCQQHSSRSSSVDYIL

B1: AB6 (antibody, V domains shown)
VH: QVQLKESGPGLVQPSQTLSLTCTVSGFSLTSYHVSWVRQPPGKGLEWMGVIWTGGSTTYNSLLKSRLSISRDISKSQVFLKMNSLQTEDTATYYCARGGTVVKGGFAYWGQGTLVTVSS
VL: DIQMTQSPASLSASLEEIVTITCQASQDIGNRLSWYQQKPGKSPQLLIYGATSLADGVPSRFSGSRSGTQYSLKISRLQVEDIGIYYCLQAYSTPLTFGSGTKLEIK
  binding: binds

From patent US20240360228A1 (BIOLEGEND, published 2024)
